Test results taken from publication PMC10916352, “Safety Evaluation of a Prototypical Diazirine-Based Covalent Crosslinker and Molecular Adhesive” (International Journal of Toxicology, 2023).

System: EpiDerm Skin Model (human-derived epidermal keratinocytes)
Test: In vitro skin corrosion test, MTT viability

## FC(F)(F)C1(c2ccc(C(c3ccc(C4(C(F)(F)F)N=N4)cc3)(C(F)(F)F)C(F)(F)F)cc2)N=N1 [BondLynx, 2,2-bis-[4-[3-(trifluoromethyl)-3H-diazirin-3-yl]phenyl]hexafluoropropane]
BondLynx added to Milli-Q water
  Colour interference, corrected OD570: .0041
Mixed with MTT, colour change check
  Direct MTT reduction: did not directly reduce MTT
